Protein sequences, listed by entry. Tags and fused reporters are not part of them. Lines headed by an entry give the natural chain unless they say otherwise; changes in a name come on top. Residues count along the entry.
UniProt Q8IZT6: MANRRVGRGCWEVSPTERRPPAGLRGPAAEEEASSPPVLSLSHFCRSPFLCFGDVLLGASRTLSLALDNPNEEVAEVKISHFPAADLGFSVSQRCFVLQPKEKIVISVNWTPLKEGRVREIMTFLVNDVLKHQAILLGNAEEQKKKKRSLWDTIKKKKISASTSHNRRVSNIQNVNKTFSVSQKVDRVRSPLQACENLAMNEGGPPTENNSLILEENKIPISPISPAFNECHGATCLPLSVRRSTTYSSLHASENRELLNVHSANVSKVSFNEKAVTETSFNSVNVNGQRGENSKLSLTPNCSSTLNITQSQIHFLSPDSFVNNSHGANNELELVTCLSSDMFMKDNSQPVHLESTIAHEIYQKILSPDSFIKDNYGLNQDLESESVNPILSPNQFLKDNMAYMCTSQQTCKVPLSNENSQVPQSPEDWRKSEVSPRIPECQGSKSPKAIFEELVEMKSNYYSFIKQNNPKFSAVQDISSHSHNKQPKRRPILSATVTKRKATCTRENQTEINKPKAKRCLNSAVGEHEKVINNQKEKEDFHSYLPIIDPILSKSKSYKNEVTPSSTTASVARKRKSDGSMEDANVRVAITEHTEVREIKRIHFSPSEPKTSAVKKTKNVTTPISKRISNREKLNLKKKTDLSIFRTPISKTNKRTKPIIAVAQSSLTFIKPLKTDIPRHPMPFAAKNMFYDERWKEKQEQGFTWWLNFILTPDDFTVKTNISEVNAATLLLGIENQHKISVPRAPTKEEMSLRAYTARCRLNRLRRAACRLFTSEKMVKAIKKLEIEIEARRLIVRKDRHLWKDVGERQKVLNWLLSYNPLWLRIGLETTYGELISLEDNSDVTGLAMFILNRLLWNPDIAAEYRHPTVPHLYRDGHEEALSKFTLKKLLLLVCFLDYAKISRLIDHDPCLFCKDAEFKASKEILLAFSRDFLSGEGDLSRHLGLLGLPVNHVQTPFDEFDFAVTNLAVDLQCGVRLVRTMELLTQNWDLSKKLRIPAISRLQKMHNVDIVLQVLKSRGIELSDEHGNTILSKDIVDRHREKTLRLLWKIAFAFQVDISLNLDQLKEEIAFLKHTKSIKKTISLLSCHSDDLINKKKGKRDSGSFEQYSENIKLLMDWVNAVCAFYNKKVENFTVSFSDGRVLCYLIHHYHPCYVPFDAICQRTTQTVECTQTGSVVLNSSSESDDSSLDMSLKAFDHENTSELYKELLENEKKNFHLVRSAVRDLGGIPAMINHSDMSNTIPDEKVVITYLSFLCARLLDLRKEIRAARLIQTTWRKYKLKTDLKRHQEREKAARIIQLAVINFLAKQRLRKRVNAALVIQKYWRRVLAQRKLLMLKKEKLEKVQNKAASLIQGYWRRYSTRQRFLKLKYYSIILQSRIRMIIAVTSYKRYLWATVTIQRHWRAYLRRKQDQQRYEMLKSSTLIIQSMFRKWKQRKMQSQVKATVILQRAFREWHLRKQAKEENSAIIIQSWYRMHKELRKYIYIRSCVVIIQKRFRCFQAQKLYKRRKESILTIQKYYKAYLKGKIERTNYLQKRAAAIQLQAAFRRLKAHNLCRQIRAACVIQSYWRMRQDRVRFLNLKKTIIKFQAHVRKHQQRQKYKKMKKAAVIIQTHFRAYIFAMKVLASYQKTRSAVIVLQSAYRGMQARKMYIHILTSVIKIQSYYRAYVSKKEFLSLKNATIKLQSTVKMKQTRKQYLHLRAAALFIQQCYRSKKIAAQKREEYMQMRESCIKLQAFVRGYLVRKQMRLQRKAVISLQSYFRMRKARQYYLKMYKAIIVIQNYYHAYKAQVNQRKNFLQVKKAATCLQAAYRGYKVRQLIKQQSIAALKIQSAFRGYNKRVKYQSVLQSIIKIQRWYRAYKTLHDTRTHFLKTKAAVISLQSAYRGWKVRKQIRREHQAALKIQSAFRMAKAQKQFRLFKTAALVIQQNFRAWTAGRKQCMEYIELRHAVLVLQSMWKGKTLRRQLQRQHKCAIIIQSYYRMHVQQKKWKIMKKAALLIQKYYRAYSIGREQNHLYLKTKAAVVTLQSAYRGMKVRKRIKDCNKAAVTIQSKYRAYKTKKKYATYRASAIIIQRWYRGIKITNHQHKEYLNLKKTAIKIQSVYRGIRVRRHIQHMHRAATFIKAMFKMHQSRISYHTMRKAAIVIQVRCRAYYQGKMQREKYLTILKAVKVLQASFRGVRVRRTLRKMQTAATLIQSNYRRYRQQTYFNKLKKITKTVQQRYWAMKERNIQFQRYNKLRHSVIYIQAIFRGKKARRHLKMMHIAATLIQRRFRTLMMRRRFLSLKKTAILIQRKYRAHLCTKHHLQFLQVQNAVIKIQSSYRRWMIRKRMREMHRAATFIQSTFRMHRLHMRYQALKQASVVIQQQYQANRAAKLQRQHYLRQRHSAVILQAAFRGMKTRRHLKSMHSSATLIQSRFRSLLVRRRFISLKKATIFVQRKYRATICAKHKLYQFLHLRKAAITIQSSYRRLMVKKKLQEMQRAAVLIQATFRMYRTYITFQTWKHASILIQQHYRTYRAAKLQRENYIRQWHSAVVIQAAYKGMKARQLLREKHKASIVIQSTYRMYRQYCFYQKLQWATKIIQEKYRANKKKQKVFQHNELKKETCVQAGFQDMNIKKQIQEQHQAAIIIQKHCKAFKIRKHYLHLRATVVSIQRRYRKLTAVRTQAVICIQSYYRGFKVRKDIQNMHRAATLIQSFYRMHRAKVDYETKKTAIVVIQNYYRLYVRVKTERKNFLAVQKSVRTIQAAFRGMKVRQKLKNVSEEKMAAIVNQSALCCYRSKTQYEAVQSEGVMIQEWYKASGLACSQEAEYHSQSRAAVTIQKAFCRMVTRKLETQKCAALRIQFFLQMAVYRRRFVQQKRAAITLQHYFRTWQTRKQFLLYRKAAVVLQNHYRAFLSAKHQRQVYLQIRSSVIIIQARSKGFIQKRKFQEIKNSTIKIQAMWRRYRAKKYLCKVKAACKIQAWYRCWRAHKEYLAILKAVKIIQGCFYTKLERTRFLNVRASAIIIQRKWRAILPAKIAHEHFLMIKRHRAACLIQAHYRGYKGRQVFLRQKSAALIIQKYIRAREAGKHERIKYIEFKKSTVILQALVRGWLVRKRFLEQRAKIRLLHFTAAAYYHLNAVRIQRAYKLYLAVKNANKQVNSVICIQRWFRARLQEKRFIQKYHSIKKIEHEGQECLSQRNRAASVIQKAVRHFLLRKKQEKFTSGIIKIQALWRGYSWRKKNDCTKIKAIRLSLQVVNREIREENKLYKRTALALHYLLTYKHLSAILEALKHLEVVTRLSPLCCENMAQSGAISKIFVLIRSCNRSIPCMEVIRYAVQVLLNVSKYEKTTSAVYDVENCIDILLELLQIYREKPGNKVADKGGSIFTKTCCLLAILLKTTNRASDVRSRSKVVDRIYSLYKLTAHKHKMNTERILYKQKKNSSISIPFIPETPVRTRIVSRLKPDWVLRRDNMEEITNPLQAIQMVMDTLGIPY
UniProt Q6PL18: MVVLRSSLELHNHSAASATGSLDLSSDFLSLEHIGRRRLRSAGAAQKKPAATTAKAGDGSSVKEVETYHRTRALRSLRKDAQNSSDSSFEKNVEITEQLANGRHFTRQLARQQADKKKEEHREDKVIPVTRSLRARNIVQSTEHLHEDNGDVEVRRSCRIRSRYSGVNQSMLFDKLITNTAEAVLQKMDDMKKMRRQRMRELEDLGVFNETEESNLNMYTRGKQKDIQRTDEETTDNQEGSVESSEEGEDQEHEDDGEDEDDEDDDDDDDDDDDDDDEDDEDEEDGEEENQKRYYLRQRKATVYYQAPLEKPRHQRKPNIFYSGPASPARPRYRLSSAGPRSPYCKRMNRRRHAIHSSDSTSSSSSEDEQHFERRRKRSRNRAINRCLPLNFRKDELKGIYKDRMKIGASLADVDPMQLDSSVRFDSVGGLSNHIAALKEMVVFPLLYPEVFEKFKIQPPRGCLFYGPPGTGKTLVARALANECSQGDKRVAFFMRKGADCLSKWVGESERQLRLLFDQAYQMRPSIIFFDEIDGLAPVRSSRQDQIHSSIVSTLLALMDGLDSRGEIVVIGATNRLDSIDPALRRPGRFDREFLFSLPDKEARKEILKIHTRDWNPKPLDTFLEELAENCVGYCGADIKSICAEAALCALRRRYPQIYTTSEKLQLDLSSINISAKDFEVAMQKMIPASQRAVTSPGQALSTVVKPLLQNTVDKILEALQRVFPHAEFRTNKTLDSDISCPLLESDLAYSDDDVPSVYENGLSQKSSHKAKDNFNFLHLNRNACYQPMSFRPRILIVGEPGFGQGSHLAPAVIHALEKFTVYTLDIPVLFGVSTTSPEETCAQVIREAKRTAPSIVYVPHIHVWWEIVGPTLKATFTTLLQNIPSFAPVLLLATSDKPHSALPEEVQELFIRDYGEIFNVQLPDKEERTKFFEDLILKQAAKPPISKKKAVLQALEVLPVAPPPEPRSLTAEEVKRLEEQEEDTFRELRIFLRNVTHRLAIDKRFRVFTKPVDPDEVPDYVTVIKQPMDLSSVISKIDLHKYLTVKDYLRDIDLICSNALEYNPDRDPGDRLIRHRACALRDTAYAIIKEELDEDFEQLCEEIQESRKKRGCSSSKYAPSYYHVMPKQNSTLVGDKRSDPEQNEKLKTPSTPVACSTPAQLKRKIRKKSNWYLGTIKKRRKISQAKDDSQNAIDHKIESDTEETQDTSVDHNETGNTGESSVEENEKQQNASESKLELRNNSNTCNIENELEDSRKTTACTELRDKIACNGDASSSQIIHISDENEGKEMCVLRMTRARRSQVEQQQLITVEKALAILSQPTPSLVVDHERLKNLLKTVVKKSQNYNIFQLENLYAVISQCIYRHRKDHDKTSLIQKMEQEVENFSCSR
UniProt O95817, 150-170: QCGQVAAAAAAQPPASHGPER
UniProt P23634: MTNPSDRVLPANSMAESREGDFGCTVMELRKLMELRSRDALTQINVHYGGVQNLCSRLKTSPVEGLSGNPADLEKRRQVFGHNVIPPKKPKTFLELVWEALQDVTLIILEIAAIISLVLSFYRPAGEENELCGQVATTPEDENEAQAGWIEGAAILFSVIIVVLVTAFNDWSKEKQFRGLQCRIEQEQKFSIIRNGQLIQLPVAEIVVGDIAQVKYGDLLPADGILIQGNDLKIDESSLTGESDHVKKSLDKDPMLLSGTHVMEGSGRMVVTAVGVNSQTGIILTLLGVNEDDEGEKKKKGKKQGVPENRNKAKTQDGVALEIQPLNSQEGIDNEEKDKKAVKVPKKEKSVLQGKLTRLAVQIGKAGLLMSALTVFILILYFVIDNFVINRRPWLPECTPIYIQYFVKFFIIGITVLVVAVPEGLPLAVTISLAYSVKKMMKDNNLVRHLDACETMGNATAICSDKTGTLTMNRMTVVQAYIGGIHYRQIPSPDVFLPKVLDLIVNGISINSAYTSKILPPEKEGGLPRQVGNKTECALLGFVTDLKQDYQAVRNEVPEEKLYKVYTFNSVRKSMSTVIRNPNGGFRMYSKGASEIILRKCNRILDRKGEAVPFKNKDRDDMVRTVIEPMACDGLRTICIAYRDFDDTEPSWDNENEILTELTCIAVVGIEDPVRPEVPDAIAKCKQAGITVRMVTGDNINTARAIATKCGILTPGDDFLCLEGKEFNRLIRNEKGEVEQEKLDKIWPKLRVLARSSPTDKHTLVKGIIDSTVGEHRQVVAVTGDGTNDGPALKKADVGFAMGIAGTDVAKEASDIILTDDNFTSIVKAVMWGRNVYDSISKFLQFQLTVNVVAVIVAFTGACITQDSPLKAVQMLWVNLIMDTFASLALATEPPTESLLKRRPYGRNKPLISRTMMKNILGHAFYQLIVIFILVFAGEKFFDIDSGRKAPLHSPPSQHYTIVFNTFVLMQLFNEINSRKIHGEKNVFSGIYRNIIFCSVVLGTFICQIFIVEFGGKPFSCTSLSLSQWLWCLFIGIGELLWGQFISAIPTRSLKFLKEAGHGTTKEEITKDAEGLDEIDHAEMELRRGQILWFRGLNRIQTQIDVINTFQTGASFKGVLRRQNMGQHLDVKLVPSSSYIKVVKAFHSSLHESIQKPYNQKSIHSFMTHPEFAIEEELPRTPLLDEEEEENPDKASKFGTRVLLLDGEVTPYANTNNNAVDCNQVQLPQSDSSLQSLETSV
UniProt O14503, whole entry, looked up: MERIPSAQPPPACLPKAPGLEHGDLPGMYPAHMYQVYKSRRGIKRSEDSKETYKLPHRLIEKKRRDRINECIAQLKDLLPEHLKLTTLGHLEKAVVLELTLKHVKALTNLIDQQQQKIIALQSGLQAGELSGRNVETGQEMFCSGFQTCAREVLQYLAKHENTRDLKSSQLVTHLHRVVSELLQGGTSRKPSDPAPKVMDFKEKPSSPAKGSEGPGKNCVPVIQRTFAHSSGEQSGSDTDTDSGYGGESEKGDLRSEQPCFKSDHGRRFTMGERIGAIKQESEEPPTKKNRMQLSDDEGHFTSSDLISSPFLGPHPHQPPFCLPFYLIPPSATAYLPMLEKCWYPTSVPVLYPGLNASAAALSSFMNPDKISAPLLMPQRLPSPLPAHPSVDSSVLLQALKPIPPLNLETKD

The list shows a part of the results. The data scatter; read single values as rough.
Each target was assayed with ClCC(=O)N[C@H]1CCCc2ccccc12 (assay: log2 mean competition ratio of IA-DTB cysteine labelling (DMSO/compound) (log2 ratio); higher = stronger cysteine engagement by compound). Settings: 50 µM; treatment time: 4 h; cell line lysate: HEK293T.
Method: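 IA-DTB competitive cysteine chemoproteomics in HEK293T RIPA lysate. Lysates were treated with compound 29 or 30 at 50 or 200 µM for 4 h, then IA-DTB (500 µM, 1 h), trypsin-digested, NeutrAvidin-enriched and analysed by diaPASEF. Competition ratio = intensity DMSO / intensity compound (n=4 treated, n=64 DMSO); binding: mean log2 CR ≥ 1 and p ≤ 0.05 plus QC filters. Target is the cysteine site.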
In the case of ATP5MF C7 (UniProt P56134), the “log2 mean competition ratio” value is reported as 0.145. With B3GALNT2 C198 (UniProt Q8NCR0) the “log2 mean competition ratio” value was 0.0363. With BCOR C1488 (UniProt Q6W2J9) the “log2 mean competition ratio” value was 0.27. ATP13A2 C365 (UniProt Q9NQ11) was tested, and the “log2 mean competition ratio” value was -0.151. In the case of ASPM C520 (UniProt Q8IZT6), the “log2 mean competition ratio” value is reported as 0.243. ATAD3A C563 (UniProt Q9NVI7) was tested, and the “log2 mean competition ratio” value was 0.169. ATAD2 C1388 (UniProt Q6PL18) was tested, and the “log2 mean competition ratio” value was -0.0945. AVEN C193 (UniProt Q9NQS1) was tested, and the “log2 mean competition ratio” value was 0.446. In the case of BAG3 C151 (UniProt O95817), the “log2 mean competition ratio” value is reported as 0.256. With ATAD1 C359 (UniProt Q8NBU5) the “log2 mean competition ratio” value was -0.0229. BAHD1 C535 (UniProt Q8TBE0) was tested, and the “log2 mean competition ratio” value was 0.0994. In the case of ATP2B4 C639 (UniProt P23634), the “log2 mean competition ratio” value is reported as -0.0549. With BHLHE40 C219 (UniProt O14503) the “log2 mean competition ratio” value was -0.00838. With BEND3 C767 (UniProt Q5T5X7) the “log2 mean competition ratio” value was -0.259. BAG2 C162 (UniProt O95816) was tested, and the “log2 mean competition ratio” value was -0.569. With BIRC6 C543 the “log2 mean competition ratio” value was -0.0572. ATP2B4 C537 (UniProt P23634) was tested, and the “log2 mean competition ratio” value was -0.0503. ASPM C95 (UniProt Q8IZT6) was tested, and the “log2 mean competition ratio” value was -0.203. For ASPM C2805 (UniProt Q8IZT6), the “log2 mean competition ratio” value was -0.183. ATM C384 (UniProt Q13315) was tested, and the “log2 mean competition ratio” value was 0.325.

Same assay, conditions: 200 µM; treatment time: 4 h; cell line lysate: HEK293T
With ATP5MF C7 (UniProt P56134) the “log2 mean competition ratio” value was -0.0818. For B3GALNT2 C198 (UniProt Q8NCR0), the “log2 mean competition ratio” value was 0.432. In the case of BCOR C1488 (UniProt Q6W2J9), the “log2 mean competition ratio” value is reported as -0.205. In the case of ATP13A2 C365 (UniProt Q9NQ11), the “log2 mean competition ratio” value is reported as 0.0262. For ASPM C520 (UniProt Q8IZT6), the “log2 mean competition ratio” value was -0.0461. With ATAD3A C563 (UniProt Q9NVI7) the “log2 mean competition ratio” value was -0.0878. For ATAD2 C1388 (UniProt Q6PL18), the “log2 mean competition ratio” value was 0.847. In the case of AVEN C193 (UniProt Q9NQS1), the “log2 mean competition ratio” value is reported as 0.124. With BAG3 C151 (UniProt O95817) the “log2 mean competition ratio” value was -0.229. In the case of ATAD1 C359 (UniProt Q8NBU5), the “log2 mean competition ratio” value is reported as 0.119. BAHD1 C535 (UniProt Q8TBE0) was tested, and the “log2 mean competition ratio” value was -0.012. ATP2B4 C639 (UniProt P23634) was tested, and the “log2 mean competition ratio” value was 0.176. BHLHE40 C219 (UniProt O14503) was tested, and the “log2 mean competition ratio” value was -0.0502. With BEND3 C767 (UniProt Q5T5X7) the “log2 mean competition ratio” value was -0.26. With BAG2 C162 (UniProt O95816) the “log2 mean competition ratio” value was -0.0937. For BIRC6 C543, the “log2 mean competition ratio” value was -0.278. With ATP2B4 C537 (UniProt P23634) the “log2 mean competition ratio” value was -0.183. In the case of ASPM C95 (UniProt Q8IZT6), the “log2 mean competition ratio” value is reported as 0.117. In the case of ASPM C2805 (UniProt Q8IZT6), the “log2 mean competition ratio” value is reported as -0.146. ATM C384 (UniProt Q13315) was tested, and the “log2 mean competition ratio” value was 0.269.
